Source: doi:10.1101/2023.06.08.544171
No constants are given. Whether binding was seen depends on the method and setting. Binding seen in cells or lysates may run through a third protein. Some binding calls cover weakened binding; strength is not graded here.

The chains behind the UniProt entries cited, without tags or fusion partners. Residues count along the entry.
UniProt Q03431, residues 27-593: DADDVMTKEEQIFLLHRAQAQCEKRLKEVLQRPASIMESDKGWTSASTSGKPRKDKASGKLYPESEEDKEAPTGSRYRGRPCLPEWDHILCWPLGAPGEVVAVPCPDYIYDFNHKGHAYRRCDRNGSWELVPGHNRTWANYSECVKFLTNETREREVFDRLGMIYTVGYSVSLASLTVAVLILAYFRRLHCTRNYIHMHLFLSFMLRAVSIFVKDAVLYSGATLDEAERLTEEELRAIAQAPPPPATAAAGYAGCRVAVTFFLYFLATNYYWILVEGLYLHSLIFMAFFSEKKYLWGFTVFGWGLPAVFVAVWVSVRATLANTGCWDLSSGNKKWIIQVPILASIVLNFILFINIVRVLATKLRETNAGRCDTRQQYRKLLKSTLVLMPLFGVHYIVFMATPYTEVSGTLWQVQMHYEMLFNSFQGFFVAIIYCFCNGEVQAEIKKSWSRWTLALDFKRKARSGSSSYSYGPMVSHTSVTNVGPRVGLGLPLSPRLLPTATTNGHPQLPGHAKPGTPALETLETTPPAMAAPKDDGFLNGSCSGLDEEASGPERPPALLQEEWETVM
UniProt P32121: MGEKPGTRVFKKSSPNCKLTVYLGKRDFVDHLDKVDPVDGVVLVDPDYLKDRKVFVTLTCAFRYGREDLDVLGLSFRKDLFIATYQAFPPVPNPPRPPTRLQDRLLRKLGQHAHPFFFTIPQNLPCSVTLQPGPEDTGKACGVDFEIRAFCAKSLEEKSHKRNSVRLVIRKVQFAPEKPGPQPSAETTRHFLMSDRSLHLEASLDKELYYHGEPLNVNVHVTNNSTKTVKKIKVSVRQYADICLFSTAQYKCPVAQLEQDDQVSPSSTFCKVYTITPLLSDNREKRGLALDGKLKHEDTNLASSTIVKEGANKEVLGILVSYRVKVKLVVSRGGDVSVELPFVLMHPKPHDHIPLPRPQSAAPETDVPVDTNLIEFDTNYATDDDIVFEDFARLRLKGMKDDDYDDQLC

Target: PTH1R-LgBiT (pBiT vector, β-arrestin recruitment assay) (human) (UniProt Q03431)
Test: split reporter

Substance: SmBiT-β-arrestin2 (from UniProt P32121 1-409)
- binding: binds
